Measurements reported in PubChem BioAssay AID504834 (National Center for Advancing Translational Sciences (NCATS), 2011).
The campaign covered roughly 320,000 compounds. About 22,000 (6.9%) were called active. Inconclusive results, whose numbers are uncertain, are shown with a selection of clear calls. Calls come from the whole dose curve; as a rule, active = well fitted inhibition curve with a large enough effect; inconclusive = small, poorly fitted or top-dose-only effect, or another doubt; inactive = no such curve, though single readings can be large or run the other way. Where the call is inconclusive, the potency comes from a doubtful curve fit.

Assay: Primary qHTS for delayed death inhibitors of the malarial parasite plastid, 96 hour incubation
Settings: P. falciparum luciferase reporter growth; series mostly up to 28.7 µM
Method in brief: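 P. falciparum expressing integrated firefly luciferase, in erythrocytes at 2% hematocrit, 0.05% parasitemia, incubated with compounds 96 h at 37 C, 5% CO2. Growth inhibition read as loss of luminescence; two-generation exposure targets delayed-death apicoplast inhibitors.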
% is set by controls: 0 for no effect and ±100 for the full control effect; potency is the fitted concentration of half-maximal effect.

Compound	Potency	activity change, negative = inhibition
O=S(=O)(/C=C/c1ccccc1)Nc1ccc(F)cc1	inactive	
CCC1(c2ccccc2)NC(=O)N(CC(=O)Nc2cccc(C#N)c2)C1=O (configuration not stated)	inconclusive: 18.5 µM [inhibitor, single point]	
O=C(Nc1ccc(S(=O)(=O)NC2=NCCCCC2)cc1)c1cc(S(=O)(=O)N2CCOCC2)ccc1F	inactive	
O=S(=O)(c1ccc(NC(=S)N/N=C/c2cccc(Oc3ccccc3)c2)cc1)N1CCOCC1	inconclusive: 14.7 µM [inhibitor, partial curve, poor fit]	
CCn1cc(C(=O)N(CCCN2CCOCC2)Cc2ccco2)c(=O)c2ccc(C)nc21	inconclusive: 4.15 µM [inhibitor, partial curve, poor fit]	
Cc1cc(C)n(C(=O)CSc2nc3ccccc3o2)n1	inconclusive: 0.0928 µM [inhibitor, full curve, poor fit]	
COc1ccc(N(CC(=O)Nc2ccc(C)c(C)c2)C2=NC3CS(=O)(=O)CC3S2)cc1 (configuration not stated)	inconclusive: 8.28 µM [inhibitor, partial curve]	
Cc1ccc2sc(N(CCCN(C)C)C(=O)c3ccc(S(=O)(=O)N(C)Cc4ccccc4)cc3)nc2c1C	active: 11.7 µM	
COc1ccc(OC)c(S(=O)(=O)Nc2ccc(C)c(C)c2)c1	inconclusive: 11.7 µM [inhibitor, single point]	
c1ccc(-c2cncnc2)nc1	inactive	
NS(=O)(=O)c1ccc(CCNC(=O)CCCn2ncn3c(cc4occc43)c2=O)cc1	inconclusive: 7.38 µM [inhibitor, partial curve, poor fit]	
NNC(=O)c1nn(-c2ccc(Cl)cc2)cc1O	inconclusive: 9.28 µM [inhibitor, single point]	
CCCCN(C(=O)c1ccc(NC2CC2)c([N+](=O)[O-])c1)c1c(N)n(CCCC)c(=O)[nH]c1=O	inconclusive: 11.7 µM [inhibitor, single point]	
O=C(NC(=S)Nc1ccc(Br)cc1)C1CCCCC1	inactive	
O=C(/C=C/c1ccccc1[N+](=O)[O-])c1ccc(F)cc1		inactive: -3.17% [at 5.75 µM]
CCOc1ccc(-c2cc(CCCC(=O)NCc3cccnc3)no2)cc1	inactive	
O=C(Nc1ccc(CN2CCOCC2)cc1)c1ccc(-c2cccc(Cl)c2)o1	inconclusive: 0.0294 µM [inhibitor, full curve, poor fit]	
O=C(Nc1ccccc1C(F)(F)F)c1cc(S(=O)(=O)N2CCOCC2)ccc1F	active: 0.928 µM	
O=C(COC(=O)c1ccc2c(c1)OCCO2)NCCC1=CCCCC1	inconclusive: 0.0026 µM [inhibitor, full curve, poor fit]	
CC(C)NC(=O)NC(=O)COC(=O)c1ccc([N+](=O)[O-])cc1Cl	inactive	
Cc1cccc(C(=O)N2N=C(c3ccc(NS(C)(=O)=O)cc3)CC2c2cccs2)c1 (configuration not stated)	inconclusive: 10.4 µM [inhibitor, single point]	

By substructure, the entries above with an aryl methoxy group
Compound	Potency	activity change, negative = inhibition
COc1ccc(N(CC(=O)Nc2ccc(C)c(C)c2)C2=NC3CS(=O)(=O)CC3S2)cc1 (configuration not stated)	inconclusive: 8.28 µM [inhibitor, partial curve]	
COc1ccc(OC)c(S(=O)(=O)Nc2ccc(C)c(C)c2)c1	inconclusive: 11.7 µM [inhibitor, single point]	

Following part:

Compound	Potency	activity change, negative = inhibition
Cc1nnc(SCC(=O)N(CCC#N)c2ccc3c(c2)OCCO3)s1	inconclusive: 9.28 µM [inhibitor, single point]	
Cc1cc(NC(=O)C(C)SCC(=O)Nc2ccccc2C(C)(C)C)no1 (configuration not stated)	active: 14.7 µM	
COc1ccc(-c2nnc(NC(=O)c3cc(Cl)ccc3Cl)o2)cc1	inconclusive: 18.5 µM [inhibitor, single point]	
Cc1ccc(S(=O)(=O)N2CCOCC2)cc1NC(=O)COC(=O)c1cnccn1	inactive	
COc1ccc(/C=C2\CCCC(C(=O)C(F)(F)F)=C2O)cc1OC	inconclusive: 11.7 µM [inhibitor, single point]	
O=C(CN1CCN(C(=O)COc2cccc(F)c2)CC1)Nc1ccc(Cl)c(C(F)(F)F)c1	inconclusive: 16.5 µM [inhibitor, partial curve, poor fit]	
CCC(C)(C(=O)NC1CCCCC1)N(C(=O)CNC(=O)c1ccccc1)c1c(C)n(C)n(-c2ccccc2)c1=O (configuration not stated)	inconclusive: 18.5 µM [inhibitor, single point]	
COc1ccccc1N1C(=O)c2ccccc2NC1c1ccncc1 (configuration not stated)	inconclusive: 4.65 µM [inhibitor, partial curve, poor fit]	
Cc1ccc(NC2=NCCC2)cc1Cl	inconclusive: 10.4 µM [inhibitor, single point]	
Cc1ccc(C)c(N(C(=O)CNC(=O)c2ccco2)C(C(=O)NCC2CCCO2)c2ccccc2)c1 (configuration not stated)	inactive	
O=C(CSc1nc2scc(-c3ccccc3)c2c(=O)[nH]1)N1CCOCC1	inconclusive: 3.29 µM [inhibitor, single point]	
Cc1oncc1C(=O)Nc1cccc(C#N)c1	inactive	
CCCCc1nnc(NC(=O)CSCc2cc(=O)n3ccsc3n2)s1	inconclusive: 10.4 µM [inhibitor, single point]	
C#CCOCCOCCOCCNc1nc(N2CCN(C(=O)C(Cc3cc4ccccc4[nH]3)n3cc(C(N)C(C)CC)nn3)CC2)nc(N2CCN(C(=O)C(Cc3cc4ccccc4[nH]3)n3cc(C(N)C(C)CC)nn3)CC2)n1 (configuration not stated)	active: 4.15 µM	
C1=C(c2c[nH]c3ccccc23)CCN(Cc2ccccc2)C1	inactive	
OCC1(Cc2cccc(Cl)c2)CCCN(Cc2ccc3cc(F)ccc3n2)C1 (configuration not stated)	inconclusive: 11.7 µM [inhibitor, single point]	
Cc1cc(C2C(=O)c3ccccc3C2=O)c(C)c(C)c1C	inconclusive: 11.7 µM [inhibitor, single point]	
Cc1ccc(CNC(=O)c2cc3c(=O)n4cccc(C)c4nc3n(CC3CCCO3)c2=N)cc1 (configuration not stated)	active: 8.28 µM	
COc1ccc(/C=C/C(=O)NC(=S)NCCc2ccc(OC)c(OC)c2)cc1	inconclusive: 10.4 µM [inhibitor, single point]	
COc1cccc(N(C(=O)Cn2nnc(-c3ccc(C)o3)n2)C(C(=O)NC(C)(C)C)c2cccs2)c1 (configuration not stated)	inactive	
COc1ccc(C(=O)Nc2ccccc2[N+](=O)[O-])cc1S(=O)(=O)N1CCOCC1	inconclusive: 11.7 µM [inhibitor, partial curve, poor fit]	
